Some of the results follow. Shown are side measurements of this screen, not its main read-out; they come without a call. The list favours compounds with an active or inconclusive main result. Words in brackets tell the shape of the fitted curve; partial curves, single points and poor fits give uncertain potencies.

The values that follow come from PubChem BioAssay AID1487 (National Center for Advancing Translational Sciences (NCATS), 2009).

The assay can be described thus: qHTS Assay for Modulators of Lamin A Splicing. Conditions: HeLa LMNA splicing GFP/RFP minigene ratio, 48 h. The method, boiled down: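 S3 HeLa cells stably expressing lamin A-EGFP splicing minigene plus DsRed2, 600 cells/well, 48 h compound exposure at 37C. Laser-scanning cytometry; analysed as GFP (500-530 nm)/RFP (575-640 nm) total intensity ratio; 0.5% DMSO vehicle.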

Setting [1] is: measured here: GFP splicing reporter channel.
Setting [2] is: measured here: RFP viability control channel.

By AC50 is commonly meant the concentration giving half of the maximal activity seen. For the molecule `Cc1ccc(C(=O)N(CC(=O)Nc2ccc(Cl)c(Cl)c2)Cc2ccco2)cc1`, the half-maximal activity concentration (AC50) under setting [1] was 35.5 µM [rising, single point].

Take `CC(=O)c1cn(CC(=O)NCc2cccnc2)c2ccccc12`: under setting [2], the AC50 is 14.1 µM [rising, single point]. On to `c1ccc(Nc2ncnc3ccc(-c4ccoc4)cc23)cc1`, for which the AC50 under setting [1] is 14.1 µM [falling, partial curve] and the AC50 under setting [2] was 12.6 µM [falling, partial curve]. For the molecule `CC(C)(C)c1ccc(C(=O)N2CCC(c3nc4ccccc4o3)CC2)cc1`, the AC50 under setting [2] is 0.631 µM [falling, partial curve, poor fit]. Take `CCOC(=O)c1ccc(-n2[nH]c(-c3ccccc3)cc2=O)cc1`: the concentration at half-maximal activity (AC50) by setting is: under setting [1], 28.2 µM [rising, single point]; under setting [2], 15.8 µM [rising, partial curve].

With `O=C(CCC1N=C2c3ccccc3N=C(SCc3ccccc3F)N2C1=O)NCc1ccc(F)cc1` (stereo not drawn), the concentration at half-maximal activity (AC50) under setting [2] was 6.31 µM [falling, full curve]. On to `Cc1nc(-n2[nH]c3c(c2=O)CCCC3)[nH]c(=O)c1Cc1ccccc1`, for which, under setting [1], the concentration at half-maximal activity (AC50) is 22.4 µM [falling, partial curve]. In the case of `COc1ccc(NC(=O)c2c(NCc3cccc(OC)c3)sc3c2CCCC3)cc1`, the AC50 under setting [2] is 35.5 µM [rising, single point]. As to `Cc1c(NC(=O)COC(=O)c2ccc(Br)o2)c(=O)n(-c2ccccc2)n1C`, the AC50 under setting [1] is 0.0112 µM [rising, full curve, poor fit] and the AC50 under setting [2] is 0.0126 µM [rising, full curve, poor fit]. Regarding `Clc1ccc(-c2nn3c(-c4ccncc4)nnc3s2)c(Cl)c1`, under setting [1], the AC50 is 2.51 µM [rising, single point]. For `COc1cc(NC(=O)C2CCCN(S(=O)(=O)c3cccc4nsnc34)C2)cc(OC)c1` (stereo not drawn), the AC50 runs as follows: under setting [1], 12.6 µM [rising, partial curve]; under setting [2], 14.1 µM [rising, partial curve]. Take `CC1=C(c2ccc(Cl)cc2)S(=O)(=O)N=C1N1CCC(C(=O)NCc2ccccc2F)CC1`: the half-maximal activity concentration (AC50) was 35.5 µM [falling, single point] under setting [1] and 0.00794 µM [falling, full curve, poor fit] under setting [2]. Turning to `O=C1[C@@H]2[C@@H]3C[C@@H]([C@H]4ON=C(c5ccc(Cl)cc5Cl)[C@@H]34)[C@@H]2C(=O)N1C1CCCCC1`, the AC50 was 35.5 µM [rising, single point] under setting [1] and 31.6 µM [rising, single point] under setting [2]. As for `CC1CCCCN1c1nnc(N)s1` (stereo not drawn), under setting [1], the AC50 is 31.6 µM [rising, single point]. Consider `Cc1cccc2nc(-c3cccnc3)c(NCCC(C)C)n12`, for which the AC50 under setting [2] was 8.91 µM [falling, partial curve].

Take `O=C(CSc1ccc2c(c1)OCCO2)Nc1ncc(Cl)cc1Cl`: the AC50 under setting [2] was 15.8 µM [rising, partial curve].

On to `COc1cc(/C=N/NC(=O)CCOc2ccccc2C)cc(Br)c1O`, for which the AC50 is 20 µM [falling, partial curve, poor fit] under setting [1] and 0.0224 µM [falling, full curve, poor fit] under setting [2].

On to `O=C(O)c1cccc(N/N=C/c2cccnc2)c1`, for which, under setting [1], the AC50 was 0.02 µM [rising, full curve, poor fit]. With `CCCCn1nnc(NC(=O)c2sc3cc(Cl)ccc3c2Cl)n1`, the AC50 under setting [2] was 12.6 µM [rising, single point]. Same read-out and setting: the value for `COC1=C(Nc2ccc(O)cc2)C(=O)c2ccccc2C1=O` was 20 µM [rising, single point]. On the same count and under the same terms, the value for `COc1ccc(S(=O)(=O)N2CCSC2c2ccc(OC)c(OC)c2)cc1` (stereo not drawn) was 28.2 µM [rising, single point]. Regarding `COc1cc(NC(=O)CC(C)n2nc(C)cc2C)cc(OC)c1` (stereo not drawn), the AC50 under setting [1] was 0.631 µM [falling, partial curve]. Regarding `CCCC1=NN2C(=N)/C(=C\c3cc(C)n(-c4cc(C)cc(C)c4)c3C)C(=O)N=C2S1`, the concentration at half-maximal activity (AC50) was 35.5 µM [falling, single point] under setting [1] and 35.5 µM [falling, single point] under setting [2]. For `Cc1cc(C)c(C)c(OCc2nc(-c3cccnc3)no2)c1`, under setting [2], the half-maximal activity concentration (AC50) was 28.2 µM [rising, single point].

As for `CCCOc1cccc(-c2nn(-c3ccccc3)cc2/C=C(\C#N)C(=O)NCCCn2ccnc2)c1`, the AC50 runs as follows: under setting [1], 22.4 µM [rising, single point]; under setting [2], 35.5 µM [rising, single point]. As to `COc1cccc(C(=O)/C=C/Nc2ccc(S(=O)(=O)Nc3ncccn3)cc2)c1`, the AC50 under setting [1] is 3.16 µM [rising, single point] and the AC50 under setting [2] is 2.82 µM [rising, single point]. Turning to `Cc1ccc2c(c1)C(O)(c1c(C)[nH]c3ccccc13)C(=O)N2` (stereo not drawn), the AC50 reads like this: under setting [1], 0.708 µM [rising, full curve, poor fit]; under setting [2], 11.2 µM [rising, partial curve].

As for `CC1(Cn2ccnn2)[C@H](C(=O)O)N2C(=O)C[C@H]2S1(=O)=O` (stereo partly drawn), the AC50 under setting [1] is 0.282 µM [rising, partial curve, poor fit].

With `COc1ccc(CCn2c(C)cc(C(=O)CSc3nnc(N)s3)c2C)cc1`, the AC50 is 11.2 µM [rising, partial curve, poor fit] under setting [1] and 22.4 µM [rising, single point] under setting [2]. Regarding `CCc1ccc(N2C(=O)CN(Cc3cc(OC)c(OC)c(OC)c3)C2=S)cc1`, the AC50 is 14.1 µM [rising, single point] under setting [1] and 15.8 µM [rising, partial curve] under setting [2]. Take `CN1C(=O)C2(N=c3ccccc3=N2)c2ccccc21`: the AC50 under setting [2] was 17.8 µM [rising, partial curve]. Consider `Cc1ccccc1NC1=C(C(=O)c2ccccc2)N(C)S(=O)(=O)c2ccccc21`, for which, under setting [1], the AC50 was 35.5 µM [rising, single point]. As to `CCCCCCCC#Cc1ccccc1/C=N/S(=O)c1ccc(C)cc1` (stereo not drawn), under setting [1], the AC50 is 14.1 µM [rising, partial curve, poor fit]. Take `Cc1ccc(C)c(NC(=S)N2CCCCC2CO)c1` (stereo not drawn): the concentration at half-maximal activity (AC50) under setting [2] was 2.82 µM [rising, partial curve, poor fit]. Same read-out and setting: as for `Cc1cc(/C=C2/NC(=O)N(c3ccccc3)C2=O)c(C)n1C(C)C`, the figure is 35.5 µM [rising, single point].
